Reference: the supplement of paper PMC10331698
± gives the standard deviation of the averaged measurements. Most values lie at the level of the controls, where differences are scatter.

What was measured:
Test in all cases: level (log10 ratio to DMSO vehicle control); higher = higher biomarker level / cell amount than vehicle control
[1] = compound: O=P(O)(O)CCC(F)(F)C(F)(F)C(F)(F)C(F)(F)C(F)(F)C(F)(F)C(F)(F)C(F)(F)F [((Perfluorooctyl)ethyl)phosphonic acid]; details: 2200 nM; in DMSO
Description: (§1)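 BioMAP Diversity Plus panel of 12 human primary cell co-culture systems (3C, 4H, LPS, SAg, BT, BF4T, BE3C, CASM3C, HDF3CGF, KF3CT, MyoF, Mphg). Compounds were added 1 h before stimulation and left for 24 h (MyoF 48 h; BT 72 h for soluble read-outs or 6 d for IgG). Biomarkers were read by ELISA, cytotoxicity by SRB, PBMC viability and proliferation by Alamar Blue. Each well value was divided by the mean of 8 DMSO control wells on the same plate and log10 transformed; duplicate blinded samples were tested at 4 concentrations.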

Perfluoropropanoic acid = compound: O=C(O)C(F)(F)C(F)(F)F [Perfluoropropanoic acid]; details: 2200 nM; in DMSO
Description: as §1

[2] = compound: FC(F)(F)C(F)(F)C(F)(F)C(F)(F)C(F)(F)C(F)(F)C(F)(F)CCI [1-Iodo-1H,1H,2H,2H-perfluorononane]; details: in DMSO
Description: as §1

[3] = compound: FC(F)(F)C(F)(F)C(F)(F)C(F)(F)C(F)(F)C(F)(F)C(F)(F)I [1-Iodopentadecafluoroheptane]; details: in DMSO
Description: as §1

[4] = compound: O=C(O)C(F)(F)OC(F)(F)C(F)(F)OC(F)(F)C(F)(F)C(F)(F)C(F)(F)F [Perfluoro-3,6-dioxadecanoic acid]; details: 2200 nM; in DMSO
Description: as §1

[5] = compound: O=C(O)C(F)(F)C(F)(F)C(F)(F)C(F)(F)C(F)(F)C(F)(F)C(F)(F)C(F)F [9-H-Perfluorononanoic acid]; details: 2200 nM; in DMSO
Description: as §1

Perfluorobutanoic acid = compound: O=C(O)C(F)(F)C(F)(F)C(F)(F)F [Perfluorobutanoic acid]; details: 2200 nM; in DMSO
Description: as §1

Perfluorooctanamide = compound: NC(=O)C(F)(F)C(F)(F)C(F)(F)C(F)(F)C(F)(F)C(F)(F)C(F)(F)F [Perfluorooctanamide]; details: 2200 nM; in DMSO
Description: as §1

[6] = compound: OCC(F)(F)C(F)(F)C(F)(F)C(F)(F)C(F)(F)C(F)(F)C(F)(F)C(F)(F)C(F)(F)C(F)(F)C(F)(F)F [11:1 Fluorotelomer alcohol]; details: in DMSO
Description: as §1

Perfluoroundecanoic acid = compound: O=C(O)C(F)(F)C(F)(F)C(F)(F)C(F)(F)C(F)(F)C(F)(F)C(F)(F)C(F)(F)C(F)(F)C(F)(F)F [Perfluoroundecanoic acid]; details: in DMSO
Description: as §1

[7] = compound: OCCC(F)(F)C(F)(F)C(F)(F)C(F)(F)C(F)(F)C(F)(F)C(F)(F)C(F)(F)F [8:2 Fluorotelomer alcohol]; details: 2200 nM; in DMSO
Description: as §1

[8] = compound: O=C(O)C=CC(F)(C(F)(F)F)C(F)(F)F [3-(Perfluoroisopropyl)-2-propenoic acid]; details: in DMSO
Description: as §1

[9] = compound: FC(F)C(F)(F)COCC1CO1 [((2,2,3,3-Tetrafluoropropoxy)methyl)oxirane]; details: 2200 nM; in DMSO
Description: as §1

[10] = compound: O=C(O)C(F)(F)OC(F)(F)C(F)(F)OC(F)(F)C(=O)O [Perfluoro-3,6-dioxaoctane-1,8-dioic acid]; details: 2200 nM; in DMSO
Description: as §1

[11] = compound: C=C(C)C(=O)OCC(F)(F)C(F)(F)C(F)(F)F [2,2,3,3,4,4,4-Heptafluorobutyl methacrylate]; details: 2200 nM; in DMSO
Description: as §1

[12] = compound: C=CC(=O)OCC(F)(F)C(F)(F)C(F)(F)C(F)(F)COC(=O)C=C [1H,1H,6H,6H-Perfluorohexane-1,6-diol diacrylate]; details: 2200 nM; in DMSO
Description: as §1

[13] = compound: O=C(O)C(F)(F)C(F)(F)OC(F)(F)F [Perfluoro-3-methoxypropanoic acid]; details: 2200 nM; in DMSO
Description: as §1

[14] = compound: O=S(=O)(Cl)C(F)(F)C(F)(F)C(F)(F)C(F)(F)C(F)(F)C(F)(F)C(F)(F)C(F)(F)F [Perfluoro-1-octanesulfonyl chloride]; details: 2200 nM; in DMSO
Description: as §1

Row | Test System | level (log10) [1] | level (log10) (Perfluoropropanoic acid) | level (log10) ([2]; 740 nM) | level (log10) ([2]; 2200 nM) | level (log10) ([2]; 6700 nM) | level (log10) ([2]; 20000 nM) | level (log10) ([3]; 740 nM) | level (log10) ([3]; 2200 nM) | level (log10) ([3]; 6700 nM) | level (log10) ([3]; 20000 nM) | level (log10) [4] | level (log10) [5] | level (log10) (Perfluorobutanoic acid) | level (log10) (Perfluorooctanamide) | level (log10) ([6]; 370 nM) | level (log10) ([6]; 1100 nM) | level (log10) ([6]; 3300 nM) | level (log10) ([6]; 10000 nM) | level (log10) (Perfluoroundecanoic acid; 740 nM) | level (log10) (Perfluoroundecanoic acid; 2200 nM) | level (log10) [7] | level (log10) ([8]; 2200 nM) | level (log10) ([8]; 6700 nM) | level (log10) ([8]; 20000 nM) | level (log10) ([8]; 60000 nM) | level (log10) [9] | level (log10) [10] | level (log10) [11] | level (log10) [12] | level (log10) [13] | level (log10) [14]
1 | LPS:sPGE2 | 0.0115 ± 0.0078 | -0.0035 ± 0.0021 | -0.0175 ± 0.046 | 0.0225 ± 0.015 | -0.0095 ± 0.0021 | -0.03 ± 0.017 | 0.007 ± 0.051 | 0.032 ± 0.027 | -0.062 ± 0.013 | -0.103 ± 0.027 | -0.007 ± 0.016 | 0.0065 ± 0.039 | -0.007 ± 0.03 | -0.027 ± 0.069 | 0.117 ± 0.036 | 0.151 ± 0.075 | 0.212 ± 0.0064 | 0.211 ± 0.044 | -0.026 ± 0.031 | -0.031 ± 0.0057 | -0.021 ± 0.018 | 0.01 ± 0.035 | 0.01 ± 0.065 | 0.046 ± 0.023 | 0.0575 ± 0.025 | -0.0345 ± 0.026 | 0.0015 ± 0.0092 | 0.057 ± 0.03 | 0.0155 ± 0.059 | -0.0165 ± 0.096 | 0.011 ± 0.055
2 | LPS:sTNF-alpha | 0.038 ± 0.035 | 0.0175 ± 0.013 | -0.0025 ± 0.0064 | 0.0065 ± 0.005 | 0.0075 ± 0.0035 | 0.0035 ± 0.0021 | -0.0045 ± 0.098 | 0.034 ± 0.0057 | 0.0115 ± 0.018 | 0.0025 ± 0.0092 | 0.026 ± 0.013 | -0.0085 ± 0.023 | 0.018 ± 0.024 | -0.038 ± 0.045 | 0.033 ± 0.0057 | 0.0075 ± 0.012 | -0.0485 ± 0.013 | -0.105 ± 0.08 | 0.0405 ± 0.022 | 0.021 ± 0.0085 | 0.0015 ± 0.056 | 0.044 ± 0.086 | 0.003 ± 0.1 | 0.0345 ± 0.057 | 0.0395 ± 0.03 | 0.0055 ± 0.028 | 0.0205 ± 0.087 | 0.0305 ± 0.025 | 0.0465 ± 0.0064 | 0.014 ± 0.083 | -0.0225 ± 0.047
3 | MyoF:CD106/VCAM-1 | 0.0125 ± 0.015 | 0.011 ± 0.0057 | -0.018 ± 0.023 | -0.012 ± 0.0099 | -0.007 ± 0.023 | -0.003 ± 0.0014 | -0.0115 ± 0.00071 | -0.017 ± 0.0071 | -0.091 ± 0.0057 | -0.448 ± 0.019 | -0.015 | -0.022 ± 0.014 | -0.025 ± 0.0042 | -0.011 ± 0.0085 | -0.0115 ± 0.00071 | -0.0055 ± 0.037 | -0.0075 ± 0.022 | -0.0025 ± 0.00071 | 0.007 ± 0.041 | 0.008 | -0.001 ± 0.016 | 0.0095 ± 0.015 | 0.006 ± 0.011 | 0.0035 ± 0.00071 | -0.0035 ± 0.0035 | -0.027 ± 0.0014 | -0.015 ± 0.021 | -0.0035 ± 0.037 | -0.052 ± 0.038 | -0.008 ± 0.045 | 0.002 ± 0.021
4 | MyoF:CXCL8/IL-8 | 0.02 ± 0.038 | -0.0015 ± 0.026 | 0.018 ± 0.0071 | 0.001 ± 0.027 | 0.0195 ± 0.0064 | 0.0335 ± 0.025 | -0.027 ± 0.054 | -0.0235 ± 0.022 | 0.028 ± 0.018 | 0.034 ± 0.038 | -0.0055 ± 0.0078 | 0.015 ± 0.0014 | -0.003 ± 0.13 | 0.01 ± 0.044 | -0.0125 ± 0.076 | -0.0155 ± 0.035 | -0.0145 ± 0.037 | 0 ± 0.04 | -0.0025 ± 0.0021 | -0.018 ± 0.0085 | 0.0075 ± 0.037 | -0.02 ± 0.0042 | -0.0445 ± 0.0064 | -0.032 ± 0.0028 | -0.0025 ± 0.019 | 0.006 ± 0.028 | 0.012 ± 0.067 | 0.031 ± 0.0028 | -0.0195 ± 0.011 | 0.0245 ± 0.063 | -0.0015 ± 0.0064
5 | MyoF:Collagen I | 0.011 ± 0.0099 | 0.009 ± 0.0085 | -0.0005 ± 0.029 | 0.002 ± 0.0099 | 0.007 ± 0.0042 | -0.015 ± 0.028 | -0.013 ± 0.037 | -0.003 ± 0.0042 | -0.0495 ± 0.0021 | -0.339 ± 0.012 | -0.002 ± 0.0085 | -0.007 ± 0.0028 | 0.003 ± 0.0042 | 0.001 ± 0.013 | 0.0425 ± 0.032 | 0.051 ± 0.047 | 0.0475 ± 0.021 | 0.0435 ± 0.013 | -0.0135 ± 0.016 | 0 ± 0.013 | -0.01 ± 0.02 | 0.018 ± 0.045 | -0.0025 ± 0.012 | -0.002 ± 0.0042 | 0.002 ± 0.0085 | 0.0055 ± 0.00071 | 0.0175 ± 0.043 | -0.008 ± 0.02 | -0.005 ± 0.052 | 0.0065 ± 0.037 | -0.016 ± 0.017
6 | MyoF:Collagen III | -0.006 ± 0.014 | 0.0265 ± 0.0064 | 0 ± 0.0071 | 0.0035 ± 0.005 | 0.0145 ± 0.0021 | -0.0055 ± 0.03 | -0.005 ± 0.0042 | -0.0295 ± 0.0092 | -0.0365 ± 0.005 | -0.311 ± 0.093 | -0.006 ± 0.0014 | -0.0095 ± 0.011 | -0.0095 ± 0.0092 | -0.005 ± 0.031 | -0.0035 ± 0.0021 | 0.011 ± 0.0085 | -0.0005 ± 0.00071 | -0.001 ± 0.0071 | -0.009 ± 0.0028 | -0.0175 ± 0.005 | -0.0045 ± 0.0078 | 0.003 ± 0.025 | -0.0055 ± 0.022 | 0.003 ± 0.0071 | 0.0075 ± 0.005 | 0.003 ± 0.0042 | 0.0005 ± 0.012 | -0.002 ± 0.018 | -0.0015 ± 0.016 | -0.0035 ± 0.026 | -0.018 ± 0.02
7 | MyoF:Collagen IV | -0.0025 ± 0.037 | 0.02 ± 0.033 | 0.03 ± 0.016 | 0.03 ± 0.0057 | 0.027 ± 0.0042 | 0.082 ± 0.018 | 0.0675 ± 0.0035 | 0.0315 ± 0.081 | 0.0705 ± 0.049 | 0.279 ± 0.09 | 0.0165 ± 0.0092 | 0.061 ± 0.065 | 0.0085 ± 0.074 | -0.0155 ± 0.069 | -0.0405 ± 0.029 | -0.0365 ± 0.05 | -0.0255 ± 0.028 | -0.01 ± 0.028 | 0.036 ± 0.031 | 0.0705 ± 0.053 | 0.004 ± 0.0028 | 0.018 ± 0.058 | -0.01 ± 0.023 | 0.0025 ± 0.0078 | 0.0205 ± 0.022 | 0.0075 ± 0.011 | -0.0065 ± 0.035 | -0.001 ± 0.03 | -0.0135 ± 0.043 | -0.008 ± 0.031 | 0.001 ± 0.0071
